Laboratory results: PubChem BioAssay AID1224828 (NIAID, 2016)
The whole screen tested about 17,000 reagents; below is a part drawn at random. 762 of all reagents (4.5%) were called active. 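Active calls include both raised and lowered p65 entry, mostly lowered; wells with fewer than 50 cells lack a z-score.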 Raw values are not corrected between plates. No sequences are given here.

- Aim: 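Regulators linking TLR4 signalling to p65 nuclear translocation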 (primary screen)
- System: mouse RAW264.7 G9 macrophage reporter cells (GFP-p65, Tnf promoter-mCherry)
- Knock-down reagent: siRNA pool against mouse genes, 100 nM
- Duration: 2 days siRNA transfection, then 40 min LPS before fixation
- Treatment: LPS (Salmonella minnesota R595) at 10 ng/ml
- Read-out: 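Imaged p65 nuclear translocation ratio, normalised to the plate median, converted to robust z-scores and averaged across two replicates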
- Reading the numbers: p65 translocation robust z-score: higher = more nuclear NF-kappaB p65 after LPS than the plate median; nuclear/cytoplasmic p65 ratio: higher = more nuclear NF-kappaB p65
- Rule for the call: 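Called active when z exceeds 3.3 or falls under -1.56 (median of Tlr4 controls), giving activity score of at least 50; no calls for control wells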
- Meaning of the calls: active = hit (p65 shift raised or lowered); inactive = no clear change

The opening 4 entries, to show the layout:
target | p65 translocation robust z-score | nuclear/cytoplasmic p65 ratio, rep 1 | nuclear/cytoplasmic p65 ratio, rep 2 | low cell count flag | Call
Abhd16b (abhydrolase domain containing 16B) | – | 1.19 | 1.14 | fewer than 50 cells per well; well left out of scoring | inactive
Snap47 (synaptosomal-associated protein, 47) | -0.35 | 1.46 | 1.43 | enough cells to score | inactive
Apobec1 | 0.37 | 1.69 | 1.66 | enough cells to score | inactive
Disp1 (dispatched RND transporter family member 1) | -0.82 | 1.36 | 1.25 | enough cells to score | inactive

The list itself, from the first entry:
target | p65 translocation robust z-score | nuclear/cytoplasmic p65 ratio, rep 1 | nuclear/cytoplasmic p65 ratio, rep 2 | low cell count flag | Call
Abhd16b (abhydrolase domain containing 16B) | – | 1.19 | 1.14 | fewer than 50 cells per well; well left out of scoring | inactive
Snap47 (synaptosomal-associated protein, 47) | -0.35 | 1.46 | 1.43 | enough cells to score | inactive
Apobec1 | 0.37 | 1.69 | 1.66 | enough cells to score | inactive
Disp1 (dispatched RND transporter family member 1) | -0.82 | 1.36 | 1.25 | enough cells to score | inactive
Klrb1c (killer cell lectin-like receptor subfamily B member 1C) | 1.64 | 1.74 | 1.69 | enough cells to score | inactive
Gpa33 (glycoprotein A33 transmembrane) | 1.71 | 1.86 | 1.83 | enough cells to score | inactive
B4galt6 | 1.35 | 1.77 | 2.08 | enough cells to score | inactive
Ier3ip1 (immediate early response 3 interacting protein 1) | – | 1.4 | 1.32 | fewer than 50 cells per well; well left out of scoring | inactive
Prss44 (serine protease 44) | 0.06 | 1.4 | 1.43 | enough cells to score | inactive
Miga2 (mitoguardin 2) | -1.44 | 1.22 | 1.22 | enough cells to score | inactive
Reps1 (RalBP1 associated Eps domain containing protein) | 0.84 | 1.53 | 1.18 | enough cells to score | inactive
Arfgef2 (ARF guanine nucleotide exchange factor 2) | -0.41 | 1.89 | 1.55 | enough cells to score | inactive
Mettl25 (methyltransferase like 25) | – | 1.49 | 1.62 | fewer than 50 cells per well; well left out of scoring | inactive
Or51g1 (olfactory receptor family 51 subfamily G member 1) | – | 1.52 | 1.36 | fewer than 50 cells per well; well left out of scoring | inactive
Gpr50 (G-protein-coupled receptor 50) | 0.04 | 1.49 | 1.61 | enough cells to score | inactive
Adar (adenosine deaminase, RNA-specific) | -0.2 | 1.58 | 1.65 | enough cells to score | inactive
Defa5 (defensin, alpha, 5) | -0.12 | 1.56 | 1.52 | enough cells to score | inactive
Dynlrb2 (dynein light chain roadblock-type 2) | -2.83 | 1.06 | 1.04 | enough cells to score | active
Gpr88 (G-protein coupled receptor 88) | -0.73 | 1.36 | 1.52 | enough cells to score | inactive
Neurog2 (neurogenin 2) | -0.47 | 1.72 | 1.51 | enough cells to score | inactive
Syf2 (SYF2 homolog, RNA splicing factor (S. cerevisiae)) | 2.53 | 1.68 | 2.07 | enough cells to score | inactive
Slurp1 (secreted Ly6/Plaur domain containing 1) | – | 1.23 | 1.17 | fewer than 50 cells per well; well left out of scoring | inactive
Mylk (myosin, light polypeptide kinase) | -1.39 | 1.26 | 1.36 | enough cells to score | inactive
Or13e8 (olfactory receptor family 13 subfamily E member 8) | – | 1.45 | 1.36 | fewer than 50 cells per well; well left out of scoring | inactive
Abcb8 (ATP-binding cassette, sub-family B member 8) | – | 1.35 | 1.19 | fewer than 50 cells per well; well left out of scoring | inactive
Klk14 (kallikrein related-peptidase 14) | – | 1.42 | 1.25 | fewer than 50 cells per well; well left out of scoring | inactive
Slco2a1 | – | 1.69 | 1.24 | fewer than 50 cells per well; well left out of scoring | inactive
2310033P09Rik (RIKEN cDNA 2310033P09 gene) | – | 1.18 | 1.16 | fewer than 50 cells per well; well left out of scoring | inactive
Prh1 (proline rich protein HaeIII subfamily 1) | 0.38 | 1.48 | 1.22 | enough cells to score | inactive
Fpr1 (formyl peptide receptor 1) | – | 1.34 | 1.39 | fewer than 50 cells per well; well left out of scoring | inactive
Mbd3 (methyl-CpG binding domain protein 3) | -0.35 | 1.44 | 1.26 | enough cells to score | inactive
Kdm4a (lysine (K)-specific demethylase 4A) | 0.58 | 1.69 | 1.46 | enough cells to score | inactive
Rcn1 (reticulocalbin 1) | 0.1 | 1.43 | 1.23 | enough cells to score | inactive
Ms4a10 (membrane-spanning 4-domains, subfamily A, member 10) | 0.16 | 1.82 | 1.61 | enough cells to score | inactive
Zfp418 (zinc finger protein 418) | – | 1.44 | 1.4 | fewer than 50 cells per well; well left out of scoring | inactive
Snx6 (sorting nexin 6) | 0.34 | 1.32 | 1.27 | enough cells to score | inactive
Scn5a (sodium channel, voltage-gated, type V, alpha) | 0.04 | 1.53 | 1.23 | enough cells to score | inactive
Slc38a4 | – | 1.17 | 1.24 | fewer than 50 cells per well; well left out of scoring | inactive
Arl5b (ADP-ribosylation factor-like 5B) | -0.39 | 1.53 | 1.47 | enough cells to score | inactive
Tdh (L-threonine dehydrogenase) | – | 1.11 | 1.09 | fewer than 50 cells per well; well left out of scoring | inactive
Srd5a1 (steroid 5 alpha-reductase 1) | 0.26 | 1.54 | 1.64 | enough cells to score | inactive
Dsc3 (desmocollin 3) | – | 1.33 | 1.3 | fewer than 50 cells per well; well left out of scoring | inactive
Cdk15 (cyclin dependent kinase 15) | -0.2 | 1.7 | 1.31 | enough cells to score | inactive
Strn3 (striatin, calmodulin binding protein 3) | -0.9 | 1.31 | 1.12 | enough cells to score | inactive
F2 (coagulation factor II) | 0.84 | 1.48 | 1.56 | enough cells to score | inactive
Ctsh (cathepsin H) | 0.36 | 1.59 | 1.37 | enough cells to score | inactive
Krt17 (keratin 17) | -0.32 | 1.39 | 1.37 | enough cells to score | inactive
Gdpd2 (glycerophosphodiester phosphodiesterase domain containing 2) | -0.45 | 1.47 | 1.45 | enough cells to score | inactive
Cat (catalase) | 0.14 | 2.04 | 1.4 | enough cells to score | inactive
Enah (ENAH actin regulator) | 0.17 | 1.59 | 1.51 | enough cells to score | inactive
Rps6kb1 (ribosomal protein S6 kinase B1) | 0.38 | 1.41 | 1.31 | enough cells to score | inactive
Klk1b5 (kallikrein 1-related peptidase b5) | 1.72 | 1.76 | 1.69 | enough cells to score | inactive
Nbl1 (NBL1, DAN family BMP antagonist) | -1.16 | 1.33 | 1.17 | enough cells to score | inactive
Telo2 (telomere maintenance 2) | – | 1.52 | 1.58 | fewer than 50 cells per well; well left out of scoring | inactive
Fbn1 (fibrillin 1) | 0.49 | 1.57 | 1.4 | enough cells to score | inactive
Rprd1b (regulation of nuclear pre-mRNA domain containing 1B) | -1.25 | 1.2 | 1.33 | enough cells to score | inactive
Ftmt (ferritin mitochondrial) | – | 1.1 | 1.3 | fewer than 50 cells per well; well left out of scoring | inactive
Trp73 (transformation related protein 73) | 0.75 | 1.63 | 1.59 | enough cells to score | inactive
Mtcl3 (MTCL family member 3) | -0.8 | 1.18 | 1.43 | enough cells to score | inactive
